Source: PubChem BioAssay AID504834 (National Center for Advancing Translational Sciences (NCATS), 2011)
The campaign covered roughly 320,000 compounds. About 22,000 (6.9%) were called active. Inconclusive results, whose numbers are uncertain, are shown with a selection of clear calls. Calls follow the shape of the dose curve; as a rule, active = well fitted inhibition curve with a large enough effect; inconclusive = small, poorly fitted or top-dose-only effect, or another doubt; inactive = no such curve, though single readings can be large or run the other way. Potencies beside an inconclusive call are fits to weak or partial responses and may not hold up.

Experiment: Primary qHTS for delayed death inhibitors of the malarial parasite plastid, 96 hour incubation
Conditions: P. falciparum luciferase reporter growth; series mostly up to 28.7 µM
Procedure, shortened: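 Infected RBCs, 2% Hct / 0.05% parasitemia final; luciferase-reporter P. falciparum; cpd 96 h, 37 C, 5% CO2; luciferase detection reagent; luminescence.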
% is scaled to controls: 0 for no effect and ±100 for the full control effect; potency is read from the fitted curve at half-maximal effect.

SMILES | Potency | activity change, negative = inhibition
COc1ccccc1NC(=S)N1CCCC1 | inconclusive: 18.5 µM [inhibitor, single point] | 
Cn1c(=O)c2c(nc(CO)n2C)n(C)c1=O | inactive | 
C/C(C=O)=C/c1ccccc1 | inactive | 
CC(=O)c1ccccc1C(=O)N1CCC(n2nccc2NC(=O)C2CC2)CC1 | inconclusive: 11.7 µM [inhibitor, partial curve, poor fit] | 
COc1ccc(CN(C)C(=O)C(Cc2ccccc2)NC(=O)c2ccccc2)cc1F (stereo not given) | inconclusive: 18.5 µM [inhibitor, single point] | 
O=C(NCC1CCCO1)c1cc(-c2ccccc2)nc2ccccc12 (stereo not given) | inconclusive: 4.15 µM [inhibitor, partial curve, poor fit] | 
CCCc1[nH]nc2c1C(C1CC=CCC1)C(C#N)=C(N)O2 (stereo not given) | inconclusive: 18.5 µM [inhibitor, single point] | 
CCC(C)NS(=O)(=O)c1ccc(NC(=O)Cc2ccc(OC)cc2)cc1 (stereo not given) | inconclusive: 6.57 µM [inhibitor, partial curve, poor fit] | 
CCOC(=O)CSc1nc2cccnc2n1-c1ccc(F)cc1 | inconclusive: 14.7 µM [inhibitor, single point] | 
COC(=O)CN(C)C(=O)c1ccc(OC2CCN(S(=O)(=O)N(C)C)CC2)cc1 | inconclusive: 18.5 µM [inhibitor, single point] | 
CN1/C(=c2/s/c(=C3/C(=O)N(c4ccccc4)NC3=Nc3ccccc3)n(C)c2=O)C(C)(C)c2ccccc21 | active: 11.7 µM | 
COc1cc(NS(=O)(=O)c2ccc(C)cc2C)cc(OC)c1OC | active: 3.29 µM | 
COc1ccc(F)cc1C(=O)C1CCCN(Cc2c[nH]c3ccccc23)C1 (stereo not given) | active: 13.1 µM | 
CCOC(=O)c1ccc(Oc2nc(OC)cc(OC)n2)cc1 | inactive | 
Cc1ccc2nc(N(CCN(C)C)C(=O)c3ccc4ccccc4c3)sc2c1 | inactive | 
Cc1ccc(C(=O)c2c3ccccc3[n+]([O-])n2[C@@H](C)C(N)=O)cc1 | inconclusive: 9.28 µM [inhibitor, single point] | 
CCCCc1ccc(NC(=O)CSC2=C(C#N)C(c3ccco3)C3=C(CCCC3=O)N2)cc1 (stereo not given) | inconclusive: 0.928 µM [inhibitor, full curve, poor fit] | 
Cc1onc(-c2ccccc2)c1C(=O)Nc1c(C)n(C)n(-c2ccccc2)c1=O | inconclusive: 0.0657 µM [inhibitor, full curve, poor fit] | 
C=CCn1c(CSc2nc3ccccc3s2)nnc1SCC(=O)NCc1ccco1 | inconclusive: 10.4 µM [inhibitor, single point] | 
CC(=O)N(C)c1ccc(NS(=O)(=O)Cc2ccccc2)cc1 | inconclusive: 14.7 µM [inhibitor, partial curve, poor fit] | 
c1ccc(CC(Nc2ccccn2)c2ccccc2)cc1 (stereo not given) | active: 14.7 µM | 
COCCC(C(=O)Oc1c(C(C)(C)C)cc(C)cc1C(C)(C)C)c1ccccc1 (stereo not given) | active: 5.22 µM | 
O=S(=O)(O)CCN1CCOCC1 | inconclusive: 18.5 µM [inhibitor, single point] | 
O=C(c1c[nH]c(=O)n(-c2ccccc2)c1=O)N1CCc2ccccc21 | inconclusive: 2.62 µM [inhibitor, full curve, poor fit] | 

SMILES | Potency | activity change, negative = inhibition
O=C(Nc1ccc(F)cc1)N1CCN2C(=O)c3ccccc3C12c1ccccc1 (stereo not given) | active: 13.1 µM | 
Cc1cc(C)n(CC(=O)NC2CCCc3c2cnn3-c2ccc(C)c(C)c2)n1 (stereo not given) | inconclusive: 14.7 µM [inhibitor, single point] | 
O=C(CCOc1ccccc1)Nc1ccc(Br)cc1 | inconclusive: 18.5 µM [inhibitor, single point] | 
O=C(Cc1ccccc1F)c1ccc(O)cc1O | inconclusive: 4.65 µM [inhibitor, partial curve, poor fit] | 
Cc1cc(C)c(C)c(S(=O)(=O)N2CCC(C(=O)Nc3ccncc3)CC2)c1C | active: 13.1 µM | 
Cc1ccn2cc(-c3cccc([N+](=O)[O-])c3)nc2c1 | inactive | 
CCCCOc1ccc(-c2nnn(CC(=O)Nc3ncc(CC(=O)OCC)s3)n2)cc1 | inconclusive: 0.828 µM [inhibitor, partial curve, poor fit] | 
CCOC(=O)C1=C(N)Oc2cc(C)[nH]c(=O)c2C1c1ccncc1 (stereo not given) | inconclusive: 2.62 µM [inhibitor, full curve, poor fit] | 
CCOC(=O)CC(NC(=O)c1cccc2c1C(=O)N(Cc1cccnc1)C2)c1ccc(OCC)c(OC)c1 (stereo not given) | inactive | 
CCN(Cc1ccccc1)C(=O)CN1C(=O)NC2(CC(C)CC(C)(C)C2)C1=O (stereo not given) | inconclusive: 18.5 µM [inhibitor, single point] | 
COc1cc(C2NC(=O)CCC2[N+](=O)[O-])c(OC)cc1Br (stereo not given) | active: 6.57 µM | 
CCCCNC(=O)c1ccc(SCC(=O)N(CC)CC)c([N+](=O)[O-])c1 | active: 1.04 µM | 
Cc1cccc(C)c1NC(=O)C(c1ccc([N+](=O)[O-])cc1)N(C)C(=O)c1ccccn1 (stereo not given) | inactive | 
C[C@H]1CC[C@H]2NCCN[C@H]2C1 | inconclusive: 4.15 µM [inhibitor, single point] | 
CC1(C)CC(N2CCCCC2)=CC(=[N+]2CCCCC2)C1 | inconclusive: 0.294 µM [inhibitor, full curve, poor fit] | 
COc1ccc(N(CC(=O)NCc2cccs2)S(=O)(=O)c2c(C)nn(C)c2C)cc1 | inconclusive: 2.94 µM [inhibitor, partial curve, poor fit] | 
C#CC1(O)CCC2C3CCC4=CC(=O)CCC4(C)C3CCC21C (stereo not given) | inconclusive: 4.26 µM [inhibitor, partial curve, poor fit] | 
CCC(NC(=O)Nc1nccs1)(C(F)(F)F)C(F)(F)F | inconclusive: 18.5 µM [inhibitor, single point] | 
Cc1ccnc(NC(=O)CCC(=O)N(Cc2ccco2)C(C(=O)NC(C)C)c2ccc(F)cc2)c1 (stereo not given) | inconclusive: 5.22 µM [inhibitor, partial curve] | 
O=C(CN(C(=O)CCC(=O)Nc1nccs1)c1ccc(F)cc1)NCC1CCCO1 (stereo not given) | inconclusive: 10.4 µM [inhibitor, single point] | 
O=C(CNCc1cccs1)Nc1cc(S(=O)(=O)N2CCCC2)ccc1Cl | inactive | 
Cc1ccccc1NC(=O)c1ccc(Nc2c([N+](=O)[O-])cc([N+](=O)[O-])c3ccccc23)cc1 | inconclusive: 18.5 µM [inhibitor, single point] | 
CN1CCN(CC(=O)N2c3ccccc3Sc3ccccc32)CC1 | inconclusive: 18.5 µM [inhibitor, single point] | 
Cc1cc(NC(=O)CCN2CCN(C)CC2)ccc1Br | inconclusive: 18.5 µM [inhibitor, single point] | 

One compound at a time, from the list above:
`Cc1ccnc(NC(=O)CCC(=O)N(Cc2ccco2)C(C(=O)NC(C)C)c2ccc(F)cc2)c1` (stereo not given) is listed as Potency: inconclusive: 5.22 µM [inhibitor, partial curve]
`CN1CCN(CC(=O)N2c3ccccc3Sc3ccccc32)CC1` is listed as Potency: inconclusive: 18.5 µM [inhibitor, single point]
`C[C@H]1CC[C@H]2NCCN[C@H]2C1` is listed as Potency: inconclusive: 4.15 µM [inhibitor, single point]

Next results.

SMILES | Potency | activity change, negative = inhibition
CC(C(=O)N1CCOCC1)N1C(=O)C2C3C=CC(C4CC34)C2C1=O (stereo not given) | inconclusive: 5.86 µM [inhibitor, partial curve, poor fit] | 
O=C(Nc1ccc(N2CCOCC2)cc1)c1ccc2nc(-c3ccco3)c(-c3ccco3)nc2c1 | inconclusive: 10.4 µM [inhibitor, partial curve] | 
CC/C(=N/Nc1cccc(C)c1)c1cnnc(SC)n1 | inactive | 
COc1ccc2nc(SCC(=O)Nc3ccc4sc(C)nc4c3)c(C#N)cc2c1 | inconclusive: 2.33 µM [inhibitor, full curve] | 
COc1ccc(OCC(=O)Nc2sc3c(c2C(=O)NCC2CCCO2)CCC3)cc1 (stereo not given) | inactive | 
CCOc1ccccc1OCCCC(=O)Nc1ccc(Cl)c(S(=O)(=O)N2CCOCC2)c1 | active: 7.38 µM | 
CC(C)C(=O)N1CCc2cc(-c3csc(N)n3)ccc21 | inactive | 
O=C1NC(CCc2ccccc2)C(=O)N1Cc1cccc2ccccc12 (stereo not given) | inconclusive: 13.1 µM [inhibitor, single point] | 
CC(OC(=O)C1CC1)C(=O)Nc1cc(C(F)(F)F)ccc1Cl (stereo not given) |  | inactive: -34.4% [at 5.75 µM]
CCn1c2ccccc2c2cc(CN3CCN(S(C)(=O)=O)CC3)ccc21 | inactive | 
S=C(NCCc1ccccc1)NCCN1CCOCC1 | inactive | 
COc1ccc2nc(NC(=O)CN3CCN(C)CC3)sc2c1 | inactive | 
COc1ccc(Cl)cc1NC(=O)CN(C)C(=O)c1ccc(-n2nc(C)cc2C)cc1 | inconclusive: 18.5 µM [inhibitor, single point] | 
O=C(Nc1ccc(F)cc1)N(Cc1ccco1)Cc1cc2cc3c(cc2[nH]c1=O)OCO3 | inconclusive: 1.04 µM [inhibitor, partial curve, poor fit] | 
Cn1cc(CNC(=O)c2cc(-c3ccccc3)nc3ccc(Br)cc23)cn1 | inconclusive: 11.7 µM [inhibitor, single point] | 
COc1ccc(C)cc1NC(=O)CN1C(=O)COc2ccc(S(=O)(=O)N3CCC(C)CC3)cc21 | inconclusive: 18.5 µM [inhibitor, single point] | 
OC[C@@H]1CCCN1Cc1nc(-c2cccs2)no1 | inconclusive: 16.5 µM [inhibitor, single point] | 
CN1[C@@H]2CC(OC(=O)[C@@H](CO)c3ccccc3)C[C@@H]1[C@H]1O[C@H]12 (stereo not given in full) | inconclusive: 8.49 µM [inhibitor, partial curve] | 
CCCn1ncc(CN2CCC(CO)(Cc3ccc(OC)cc3)CC2)c1C | active: 0.37 µM | 
CC(C)(C)NC(=O)c1ccc(C(=O)NC(C)(C)C)cc1 | inactive | 
COc1ccc(Cc2c3cc(OC)c(OC)cc3cc[n+]2C)cc1OC | active: 8.28 µM | 
O=C(NCC(c1ccco1)N1CCc2ccccc21)C(=O)Nc1ccccc1 (stereo not given) | inconclusive: 14.7 µM [inhibitor, partial curve, poor fit] | 
